Assay results reported in the supplement of paper PMC11348887.
Where a name gives a salt, the structure may show the parent alone. The list shows a part of the results. Small differences around the control level are noise.

Key:
Settings in all cases: 5 µM; treatment: days 7-14 after plating, readout day 21
[1] = tested on: hPSC-derived cortical neurons (WA09); test: nucleus area z-score vs screen plate; higher = larger nuclei (more mature)
[2] = tested on: hPSC-derived cortical neurons (WA09); test: total neurite length per nucleus (MAP2) z-score; higher = more neurite growth
[3] = tested on: hPSC-derived cortical neurons (WA09); test: nucleus roundness z-score vs screen plate; higher = rounder nuclei (more mature)
[4] = tested on: hPSC-derived cortical neurons (WA09); test: KCl-induced FOS+/EGR-1+ double-positive nuclei fraction z-score (KCl minus unstimulated); higher = stronger activity-induced IEG response

Structure (SMILES) | nucleus area z-score [1] | total neurite length per nucleus (z-score) [2] | nucleus roundness z-score [3] | KCl-induced FOS+/EGR-1+ double-positive nuclei fraction z-score [4]
COc1cccc(-n2c(=O)[nH]c3cc(Cl)n(-c4ccc(-c5cccc(OC)c5O)cc4)c3c2=O)c1 | 1.5 | -0.551 | -0.573 | -1.09
CC(=O)Oc1cc2c(s1)CCN(C(C(=O)C1CC1)c1ccccc1F)C2 (stereo not drawn) [Prasugrel] | 1.84 | -0.705 | -1.04 | -0.74
O=C(CCCN1CC=C(n2c(=O)[nH]c3ccccc32)CC1)c1ccc(F)cc1 [Droperidol] | -0.209 | 0.598 | 0.412 | 0.293
Cc1cc(C)c(Nc2ccnc(Nc3ccc(C#N)cc3)n2)c(C)c1 [Dapivirine (TMC120)] | 2.2 | -0.912 | -0.15 | -0.683
COc1cc(OC)c(C(=O)CCCN2CCCC2)c(OC)c1 [Buflomedil HCl] | 1.22 | -0.782 | -0.776 | -0.0894
OC[C@H]1O[C@@H](OCCc2ccc(O)cc2)[C@H](O)[C@@H](O)[C@@H]1O [Salidroside] | 0.0968 | 0.551 | 0.136 | 0.728
Cc1nc2ccc(NC(=O)Nc3ccnc4cccnc34)cc2o1 | -0.46 | -0.42 | 0.0646 | -0.357
c1cc(-c2cnn3cc(-c4ccc(N5CCNCC5)cc4)cnc23)c2cccnc2c1 | -14.9 | -3.97 | -1.32 | -1.03
Cc1cccc(C)c1OCC(C)N (stereo not drawn) [Mexiletine HCl] | 0.0101 | 0.395 | 0.258 | 0.269
Cc1nnc(NS(=O)(=O)c2ccc(N)cc2)s1 [Sulfamethizole] | -0.832 | -0.578 | -0.897 | 0.419
O=C(NCc1cccc(O)c1)Nc1nc(-c2ccncc2)cs1 | 2.49 | -0.632 | 0.173 | -0.957
CN[C@@H](C)C(=O)N[C@H](C(=O)N1CCC[C@H]1c1nc(C(=O)c2ccc(F)cc2)cs1)C1CCCCC1 | -0.291 | 0.237 | 0.152 | -1.44
CC1(C)CCC(c2ccc(Cl)cc2)=C(CN2CCN(c3ccc(C(=O)NS(=O)(=O)c4ccc(N[C@H](CCN5CCOCC5)CSc5ccccc5)c(S(=O)(=O)C(F)(F)F)c4)cc3)CC2)C1 [ABT-263 (Navitoclax)] | -3.69 | 2.35 | -4.68 | 8.54
CCCN(CCC)CCc1cccc2c1CC(=O)N2 [Ropinirole HCl] | 0.317 | 0.492 | 0.203 | -0.304
N#CN=C(NCCCCCCOc1ccc(Cl)cc1)Nc1ccncc1 | -20.2 | -6.97 | -9.75 | -2.23
O=C(O)[C@]1(Cc2cccc(Nc3nccs3)n2)CC[C@@H](Oc2cccc(Cl)c2F)CC1 | -0.0991 | 0.102 | 0.166 | -0.871
NC(=O)N1CCC(CC(=O)N2CCC([C@H]3c4ncc(Br)cc4CCc4cc(Cl)cc(Br)c43)CC2)CC1 [Lonafarnib] | -1.28 | 0.621 | 1.33 | 0.256
CC(=O)Oc1cc2c(s1)CCN(C(C(=O)C1CC1)c1ccccc1F)C2 (stereo not drawn) [Prasugrel Hydrochloride] | 0.0758 | -0.334 | 0.54 | 0.33
Cc1nc2ccc(-n3ncc(C(=O)c4cc5ccccc5[nH]4)c3N)cc2[nH]1 | 1.11 | 0.553 | 1.32 | 0.894

A portion taken from the entries so far, as a working copy:
Structure (SMILES) | nucleus area z-score [1] | total neurite length per nucleus (z-score) [2] | nucleus roundness z-score [3] | KCl-induced FOS+/EGR-1+ double-positive nuclei fraction z-score [4]
CC(=O)Oc1cc2c(s1)CCN(C(C(=O)C1CC1)c1ccccc1F)C2 (stereo not drawn) [Prasugrel] | 1.84 | -0.705 | -1.04 | -0.74
O=C(CCCN1CC=C(n2c(=O)[nH]c3ccccc32)CC1)c1ccc(F)cc1 [Droperidol] | -0.209 | 0.598 | 0.412 | 0.293

Remaining list, next part

Structure (SMILES) | nucleus area z-score [1] | total neurite length per nucleus (z-score) [2] | nucleus roundness z-score [3] | KCl-induced FOS+/EGR-1+ double-positive nuclei fraction z-score [4]
Cc1cc(/N=N/c2ccc(S(=O)(=O)Nc3ccccn3)cc2)c(N)cc1O | -0.92 | 1.16 | -0.237 | -0.246
CCN(CC)CCCC(C)Nc1ccnc2cc(Cl)ccc12 (stereo not drawn) [Chloroquine Phosphate] | 0.0659 | -0.207 | -0.0901 | -0.148
CCC(C)(C)C(=O)O[C@H]1C[C@@H](C)C=C2C=C[C@H](C)[C@H](CC[C@@H]3C[C@@H](O)CC(=O)O3)[C@H]21 [Simvastatin] | -1.12 | -0.957 | -0.00856 | -2.96
Cc1c(C(N)=O)cc([N+](=O)[O-])cc1[N+](=O)[O-] [Dinitolmide] | 1.14 | -0.118 | -1.24 | -0.646
CC(=O)O[C@H]1C[C@@H]2CC[C@@H]3[C@H](CC[C@@]4(C)[C@H]3C[C@H]([N+]3(C)CCCCC3)[C@@H]4OC(C)=O)[C@@]2(C)C[C@@H]1N1CCCCC1 [Vecuronium Bromide] | 1.02 | -0.505 | 0.177 | 1.15
CC1(C)S[C@@H]2[C@H](NC(=O)[C@H](N)c3ccccc3)C(=O)N2[C@H]1C(=O)O [Ampicillin sodium] | 1.15 | -1.38 | -1.24 | 0.813
Cc1cc2c(C(N)=O)cccc2n1-c1nc2c(c(NCc3ccccc3)n1)COCC2 | -17.1 | -6.74 | -10.7 | -1.01
Fc1cc(-c2cccc3ncc(-c4cnn(C5CCNCC5)c4)nc23)cc(F)c1CN1CCOCC1 | -14.5 | -5.66 | -5.91 | -0.937
NC[C@H](O)c1ccc(O)c(O)c1 [Noradrenaline bitartrate monohydrate] | 1.12 | 0.785 | 0.246 | 2.8
CC(C)c1ccc(NC(=O)Cn2cnc3c2c(=O)n(C)c(=O)n3C)cc1 | -0.54 | 0.499 | 0.208 | 0.254
CCc1cccc(CC)c1NC(=O)N1Cc2[nH]nc(NC(=O)c3ccc(N4CCN(C)CC4)cc3)c2C1 | 0.521 | -0.096 | -0.937 | -1.46
NCCc1ccc(O)c(O)c1 [Dopamine HCl] | 0.075 | 0.462 | 0.81 | 0.0686
CCN(C(=O)c1c(O)c2c(Cl)cccc2n(C)c1=O)c1ccccc1 [Laquinimod] | 1.12 | 0.222 | -0.0275 | 0.272
CC(=O)O/N=C1\C(=O)N(Cc2cc(Cl)ccc2Cl)c2ccc(Cl)cc21 | -1.07 | 0.954 | 1.61 | -0.0489
Cc1cc(Nc2nc(N[C@@H](C)c3ccc(F)cc3)c(C#N)cc2F)n[nH]1 | -2.87 | 0.24 | -1.62 | -0.233
CC(C)(CCCCCC(O)CCCCCC(C)(C)C(=O)O)C(=O)O | 0.107 | 1.12 | 0.931 | 0.568
CCOc1ccccc1OC(c1ccccc1)C1CNCCO1 (stereo not drawn) [Reboxetine mesylate] | -0.00458 | -0.167 | 1.18 | 0.58
Cc1ccc(NC(=S)NNc2c([N+](=O)[O-])cc(C(F)(F)F)cc2[N+](=O)[O-])cc1Cl | -0.0955 | 0.995 | 0.739 | 1.71
